# Experimental data: patent publication US20130130985A1 (priority 2010, published 2013)
# Tests used:
# [1] = general procedure: Boc solid-phase peptide synthesis; MBHA resin (0.6 mmol/g); PAM resin; HBTU (in situ neutralization); HBTU/DIEA; conditions: late stage modification step
# [2] = general procedure: Boc solid-phase peptide synthesis; MBHA resin (0.6 mmol/g); HBTU (in situ neutralization); HBTU/DIEA; conditions: whole synthesis, scale 0.25 mmol; for isolated yield: overall
Substance,step yield [1],isolated yield [2],crude mass [2],crude yield [2],isolated mass [2]
CYIQNSec(pNA)PLG-NH2,40% yield,,,,
CYIQNSec(pNB)PLG-NH2,,47% overall yield,65 mg,66% yield,46 mg
Sec(Acm)YIQNCPLG-NH2,,22% overall yield,60 mg,63% yield,22 mg
